These are yes or no findings as the source states them, for the method shown. In cells and extracts the contact can be indirect. Some binding calls cover weakened binding; strength is not graded here.
Target: T1, CD74 membrane receptor (rat (endogenous in primary joint capsule fibroblasts)) (UniProt P10247)
T1 sequence: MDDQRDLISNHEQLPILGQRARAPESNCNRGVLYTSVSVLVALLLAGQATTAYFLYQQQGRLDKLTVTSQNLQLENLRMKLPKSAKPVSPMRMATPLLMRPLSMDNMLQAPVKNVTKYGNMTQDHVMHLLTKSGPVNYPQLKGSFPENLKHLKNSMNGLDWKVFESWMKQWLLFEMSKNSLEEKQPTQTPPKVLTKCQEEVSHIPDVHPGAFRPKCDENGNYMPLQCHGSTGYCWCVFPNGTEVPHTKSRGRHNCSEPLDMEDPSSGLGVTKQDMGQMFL
Experiment: co-IP; lysates (500 μg) of rat primary joint capsule fibroblasts treated with 2 μg/mL MIF for 24 h; precleared with protein A plus G-Sepharose, incubated with anti-MIF or anti-CD74 antibody at 4 °C, immunoblot with anti-MIF or anti-CD74

Sequences of proteins named here, by UniProt entry; tags and fusion partners are left off.
UniProt P30904: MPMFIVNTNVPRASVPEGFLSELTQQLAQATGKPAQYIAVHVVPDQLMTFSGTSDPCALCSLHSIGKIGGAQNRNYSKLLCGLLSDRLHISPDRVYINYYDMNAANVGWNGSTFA

Substance: Macrophage migration inhibitory factor (from UniProt P30904 1-115) (ligand)
- binding: binds
